In article PMC4888278, “Structural determinant for inducing RORgamma specific inverse agonism triggered by a synthetic benzoxazinone ligand” (BMC Structural Biology, 2016):
No constants are given. Whether binding was seen depends on the method and setting.

By UniProt entry, the sequences of proteins in these tests, tags left out. Residues count along the entry.
UniProt P51449, residues 259-518: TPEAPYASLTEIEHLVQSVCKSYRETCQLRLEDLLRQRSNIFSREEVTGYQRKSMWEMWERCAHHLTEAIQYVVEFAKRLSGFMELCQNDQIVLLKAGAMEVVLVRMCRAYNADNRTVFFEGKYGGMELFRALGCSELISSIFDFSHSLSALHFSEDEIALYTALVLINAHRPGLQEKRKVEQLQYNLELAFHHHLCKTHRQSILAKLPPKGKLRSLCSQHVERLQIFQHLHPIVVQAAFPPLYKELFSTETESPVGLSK

Biological target: RORγ518 (human RORγ ligand binding domain, residues 259-518) (human) (UniProt P51449)
Assay: SEC; Superdex 75 in 25 mM TRIS pH 8.0, 250 mM NaCl, 5 % glycerol, 2 mM DTT, after removal of GST; both purified

RORγ518 (human RORγ ligand binding domain, residues 259-518) (from UniProt P51449 259-518) (domain or fragment)
binding: no binding
